Several values for one entry are separate records, joined by “and”; a condition that tells them apart may be missing. Identical values can stand only once. The list shows a part of the results. The main result of the screen is listed elsewhere. These columns were measured beside it and carry no call. The list favours compounds with an active or inconclusive main result. Potencies come from curve fits of mixed quality, noted in brackets.

This assay in a line: Cell signaling CRE-BLA (Fsk stim). Conditions: CHO CRE-bla reporter (cAMP response element driving beta-lactamase), forskolin EC10, beta-lactamase ratio; measured here: 460 nm blue channel. In a few lines:
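CRE-bla CHO reporter cells treated with compound titration plus EC10 NKH 477 (water-soluble forskolin), incubated 3 h at 37 °C; CCF4 loading 2 h at room temperature, 460/530 nm emission ratio read, AC50 values derived for positive or negative modulators.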
As usually defined, the AC50 is the midpoint of the concentration-response curve, whichever way the signal moves. Take `CCNc1ncc2nc(-c3ccccc3)c(=O)n(C3CC3)c2n1`: the AC50 is 12.6 µM [rising, partial curve].
Regarding `COc1ncnc2c1N[C@@](C)(O)c1c(F)c(F)c(F)c(F)c1S2`, the AC50 is 25.1 µM [rising, single point].
Next, `Cc1ccc(S(=O)(=O)N2CCCC2C(=O)Nc2nc3ccccc3s2)cc1` (stereo not drawn): 10 µM [falling, single point]; `COc1ccc(CCNC(=O)C2CCN(S(=O)(=O)N3CCOCC3)CC2)cc1OC`: 3.16 µM [falling, partial curve]; `COc1ccc(-c2nnc(SCCOc3cccc(C)c3)n2N)cc1`: 5.01 µM [falling, single point].
For the compound `COc1ccc(-c2[nH]nc3oc(=O)cc(C)c23)cc1`, the AC50 is 12.6 µM [rising, partial curve].
`CCOC(=O)c1c(NC(C)=O)sc2c(O)c(CN3CCN(CC)CC3)ccc12`: the AC50 was 12.6 µM [rising, single point].
For `O=C1CSC(c2ccccc2F)N1c1cc(Cl)ccc1O` (stereo not drawn) the value was 12.6 µM [falling, single point].
Turning to `Cc1noc(C)c1C(=O)OCC(=O)/C=C1\N(C)c2ccccc2C1(C)C`, the AC50 was 1.26 µM [rising, partial curve].
On to `CCOc1ccc(C2C(C#N)=C(N)N3C(=C2C#N)Sc2ccccc23)cc1` (stereo not drawn), for which the AC50 was 12.6 µM [rising, partial curve].
`C=CCSc1nc2c(c(=O)[nH]c(=O)n2C)n1Cc1ccc(C)cc1`: the AC50 was 2.51 µM [rising, full curve].
Next, `C=CCNS(=O)(=O)c1ccc(OC)c(C)c1`: 0.00316 µM [falling, full curve, poor fit]; `CCc1nc(SCC(=O)N2CCCC2)c2ccccc2n1`: 3.16 µM [rising, single point].
Next, `O=C1C2C(C(=O)N1Cc1ccco1)C1C=CC2C12CC2` (stereo not drawn): 5.01 µM [falling, single point]; `CCN(CC)c1cccc(OCC(=O)N(C)CCC#N)c1`: 10 µM [rising, partial curve]; `Cc1cc(C)cc(-n2nnc(C(=O)NCc3ccco3)c2N)c1`: 3.16 µM [rising, single point].
As for `CNc1nc(C)nc(-c2ccccc2O)n1`, the AC50 was 12.6 µM [rising, partial curve].
On to `Cc1c(NC(=O)c2cc(-c3ccccc3)on2)c(=O)n(-c2ccccc2)n1C`, for which the AC50 was 0.0251 µM [falling, full curve, poor fit].
In the case of `COc1ccc(CNc2ccnc(-c3ccc(N(C)C)cc3)n2)c(OC)c1`, the AC50 is 12.6 µM [rising, single point].
Take `O=C(NC(Cc1ccccc1)c1nc2ccccc2[nH]1)C1CC(=O)N(c2ccc3c(c2)OCCO3)C1` (stereo not drawn): the AC50 is 0.1 µM [falling, single point].
Take `COC(=O)Cn1c(=NC(=O)CSC(C)=O)sc2ccccc21`: the AC50 is 12.6 µM [rising, single point].
On to `Cc1noc(C)c1CSc1nnnn1-c1ccc(Cl)cc1`, for which the AC50 was 15.8 µM [rising, single point].
Take `CC(C)CC(C(=O)NCc1ccccn1)N1C(=O)c2ccccc2C1=O` (stereo not drawn): the AC50 was 1 µM [falling, single point].
Next, `CC(C)CN(CC(C)C)S(=O)(=O)N1CCC(C(=O)NCc2ccccn2)CC1`: 0.1 µM [rising, partial curve]; `O=C(Nc1ccc(C(F)(F)F)cc1)C1CCCN1S(=O)(=O)c1cccc2cccnc12` (stereo not drawn): 0.00794 µM [falling, full curve, poor fit]; `CC(=O)N(Cc1cc(=O)[nH]c2ccccc12)c1cccc(C)c1`: 0.00501 µM [rising, full curve].
`CCCCCNC(=O)c1cc(S(=O)(=O)N2CCCCC2)ccc1F`: the AC50 was 10 µM [rising, partial curve, poor fit].
`CCc1nc(N)c(C#N)c(-c2ccc(O)c(OC)c2)c1C`: the AC50 was 12.6 µM [rising, partial curve].
Regarding `COc1ccccc1NC(=O)COc1ccc(CO)cc1Cl`, the AC50 is 10 µM [rising, partial curve].
For `COc1cc([C@H]2c3cc4c(cc3[C@@H](O)[C@@H]3COC(=O)[C@H]23)OCO4)cc(OC)c1OC` the value was 63.1 nM [rising, full curve] and 10 nM [rising, full curve]; for `COCC(C)n1c(SCc2ccc(C(=O)OC)o2)nc2ccccc2c1=O` (stereo not drawn), 7.94 µM [rising, partial curve].
With `O=C(OCC(=O)N1CCN(C(=O)COC(=O)c2ccncc2)CC1)c1ccncc1`, the AC50 was 0.0316 µM [falling, full curve, poor fit].
With `CN1/C(=C\C(=O)c2ccco2)C(C)(C)c2ccccc21`, the AC50 was 12.6 µM [rising, partial curve].
Next, `COc1ccc(N2CCN(c3ncnc4nc[nH]c34)CC2)cc1`: 12.6 µM [rising, partial curve].
For the compound `Cc1cccn2c(=O)c3cc(C(=O)N4CCN(C(=O)c5ccco5)CC4)n(C)c3nc12`, the AC50 is 12.6 µM [rising, partial curve].
As to `O=C(CN1C(=O)NC(Cc2ccccc2)C1=O)Nc1ccccc1` (stereo not drawn), the AC50 is 0.00631 µM [falling, full curve, poor fit].
As to `O=C(O)c1ccccc1C(=O)NCC(O)COCC1CC=CCC1` (stereo not drawn), the AC50 was 1 µM [rising, single point].
With `Cc1noc(NS(=O)(=O)c2ccc(NC(=O)c3cnc4scc(C)n4c3=O)cc2)c1C`, the concentration at half-maximal activity (AC50) is 15.8 µM [rising, single point].
For the compound `COc1ccccc1C(=O)NCCc1nc2ccccc2n1C`, the AC50 was 10 µM [rising, partial curve].
As to `COc1ccc2oc(=O)c(NC(=O)C3CCCCC3)cc2c1`, the AC50 is 2 µM [rising, single point].
With `O=c1[nH]c2ccc(S(=O)(=O)N3CCN(C4CCCCC4)CC3)cc2[nH]c1=O`, the AC50 is 0.251 µM [rising, full curve].
Consider `Cc1cc(NC(=O)C2CCCCC2)nc2c1c(=O)oc1ccccc12`, for which the AC50 is 25.1 µM [rising, single point].
Consider `COc1ccccc1OCCC(=O)OCC(=O)NC(=O)NC(C)(C)C`, for which the AC50 was 0.00398 µM [falling, full curve, poor fit].

Source of the values: PubChem BioAssay AID662 (National Center for Advancing Translational Sciences (NCATS), 2007).
